For test [1], the target named is Human LRP-8 (isoform 3) expressed on cells (human) (UniProt Q14114). The experiment in a line: cell-based MSD assay.
Test [2] has the same target. The experiment in a line: cell-based binding assay (FIG. 13).
The target is the same in test [3]. The experiment in a line: cell-based MSD assay on hLRP8-293 cells.
Test [4] has the same target. The experiment in a line: flow cytometry on cells transiently transfected with pB-LRP8-hum against an irrelevant construct (Example 1.9); isotype printed IgG2a/k.
Test [5] shares this target. Put plainly: flow cytometry on cells transiently transfected with pB-LRP8-hum against an irrelevant construct (Example 1.9); isotype printed IgG2b/k. For orientation: A flow cytometer gives signals particle by particle.
Test [6] has the same target. Put plainly: Reactivity column of Table 10.
The target is the same in test [7]. Put plainly: binding to LRP-8 transfected HEK293 cells.
Test [8] has the same target. The experiment in a line: FACS, hybridoma supernatant on hLRP-8-HEK293 stable cells (Example 2.2); bar series 3, 9, 27, 81 without unit; y axis without title.
Test [9] shares this target. The experiment in a line: cell-based MSD binding (Table 17).
The target is the same in test [10]. Put plainly: cell-based MSD binding; species of LRP-8 not given.

Protein sequences, listed by entry. Tags and fused reporters are not part of them. Lines headed by an entry give the natural chain unless they say otherwise; changes in a name come on top.
UniProt Q14114: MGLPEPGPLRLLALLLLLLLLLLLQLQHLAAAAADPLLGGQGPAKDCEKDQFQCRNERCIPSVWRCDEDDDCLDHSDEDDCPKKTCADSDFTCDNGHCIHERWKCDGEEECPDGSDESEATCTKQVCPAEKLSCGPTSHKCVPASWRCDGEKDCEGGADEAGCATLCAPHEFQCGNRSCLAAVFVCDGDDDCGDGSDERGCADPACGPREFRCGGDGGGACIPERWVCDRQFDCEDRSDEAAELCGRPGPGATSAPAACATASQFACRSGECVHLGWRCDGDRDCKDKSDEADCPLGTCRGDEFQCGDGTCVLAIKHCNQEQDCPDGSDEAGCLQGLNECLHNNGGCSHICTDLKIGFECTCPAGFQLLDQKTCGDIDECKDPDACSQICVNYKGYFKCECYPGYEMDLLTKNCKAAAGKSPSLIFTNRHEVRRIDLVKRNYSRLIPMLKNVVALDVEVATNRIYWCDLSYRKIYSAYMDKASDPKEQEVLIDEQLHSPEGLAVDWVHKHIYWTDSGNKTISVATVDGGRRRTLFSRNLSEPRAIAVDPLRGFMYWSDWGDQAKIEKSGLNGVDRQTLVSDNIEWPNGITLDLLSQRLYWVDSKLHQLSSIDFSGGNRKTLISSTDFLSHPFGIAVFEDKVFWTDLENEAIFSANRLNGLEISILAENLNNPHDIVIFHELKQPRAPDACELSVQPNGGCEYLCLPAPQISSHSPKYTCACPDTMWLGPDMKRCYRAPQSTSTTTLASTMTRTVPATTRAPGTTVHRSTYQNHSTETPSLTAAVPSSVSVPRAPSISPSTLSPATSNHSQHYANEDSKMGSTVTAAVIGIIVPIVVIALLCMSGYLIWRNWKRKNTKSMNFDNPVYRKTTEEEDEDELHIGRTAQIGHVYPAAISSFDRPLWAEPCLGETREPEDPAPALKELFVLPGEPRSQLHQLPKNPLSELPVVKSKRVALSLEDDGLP

Substitutions are numbered along the chain they refer to. No constants are given. Whether binding was seen depends on the method and setting. Some binding calls cover weakened binding; strength is not graded here.

B1: anti-LRP-8 BGK-2C8.8C antibody (antibody, V domains shown)
VH: EVQLVESGGGLVQPGRSLKLSCAASGFTVSDYYMAWVRQAPKKGLEWVASISYEGSSTYYGDSVKGRFTISRDNAKSILYLQMNSLRSEDTATYYCARPLRYYGYNYRFAYWGQGTLVTVSS
VL: DIQMSQSPPVLSASVGDRVTLSCKASQNIHKNLDWYQQKHGEAPKLLIYYTDNLQTGIPSRFSGSGSGTDYTLTISSLQPEDVATYYCYQYNSGPTFGAGTKLELQ
B1: the binding result in test [1], in [2] and in test [3] was “binds” in each case.

B2: anti-LRP-8 BGK-9D10-2 antibody (CL-105967) (antibody, V domains shown)
VH: EVQLVESGGGLVQSGRSLKLSCAASGFTFSNYYMAWVRQAPKKGLEWVATITTSGSRSFYPDSVKGRFTISRDNAKSSLYLQINSLKSEDTATYYCARRGPLGYFDHWGRGVMVTVSS
VL: DIQMTQSPPSLPASLGDKVTITCQASQNINKYIAWYQQKPGKAPRLLIRFTSTLESDTPSRFSGSGSGRDYSFSISNVESEDFASYYCLHYDNLPPWTFGGGTKLELK
B2: the binding result in test [2] is on record as “binds”.

B3: anti-LRP-8 BGK.6E3.F4 [r/m IgG2a/K] (antibody, V domains shown)
VH: EVQLVESGGGLVQPGKSLKLSCAASGFTFSDYNMAWVRQAPKKGLEWVATIMYDGSRTFYRDSVKGRYTFSRDNAKSTLYLQMDSLRSEDTATYYCATGRNWFAYWGQGTLVTVSS
VL: DIIMTQSPSSLAVSAGETVTINCKSSQSLLSSGKQKNYLAWYQQKPGQSPKLLIYLASTRESGVPDRFIGSGSGTDFTLTISSMQAEDLAIYYCQQHYDTPLTFGSGTKLEIK
Regarding B3, in [4], the binding entry is reported as “binds”.

B4: anti-LRP-8 BGK.2C8.E6.D3 [r/m IgG2a/K] (antibody, V domains shown)
VH: QVTLKESGPGILQPSQTLSLTCTFSGFSLNTYGMGVGWVRQPSGKGLEWLANIWWDDDKFYNPSLKNRLTVSKDTSNNQAFLRITNGDTADTATYFCARILGEDIGGALDAWGQGTSVTVSS
VL: DTVLTQSPALAVSPGERVSISCRASEGVNSYMHWYQQNPGQQSKLLIYRTSNLASGVPARFGGSGSGTDFTLTIDPVEADDTATYFCQQSWNDPPTFGGGTKLELK
Take B4: in test [5], the binding result is reported as “binds”.

B5: anti-LRP-8 ML199-11H1.5B2 murine antibody (muFc) (antibody, V domains shown)
VH: EVQLVESGGDLVKPGGSLKLSCAASRFTFSNYGMSWVRQTPDKRLEWVATISSGGRYTYYPDSVKGRFTISRDNAKNTLYLQMSSLRSEDTAMYYCARDYLYAMDYWGQGTSVTVSS
VL: DVVMTQTPLSLPVSLGDQASISCRSSQSLVYSNGNTYLHWYLQKPGQSPKVLMYKVSNRFSGVSDRFSGSGSGTDFTLKISRVEAEDLGVYFCSQSTHVPLTFGAGTKLELK
For the molecule B5, the binding entry in test [6], in test [7] and in [8] was “binds” throughout.

B6: anti-LRP-8 ML201-8F3.3D7 murine antibody (muFc) (antibody, V domains shown)
VH: B5 VH with Y32F
VL: B5 VL
B6: the binding result in [7] and in test [8] was “binds” throughout.

B7: chimeric anti-LRP-8 ML199.11H1.5B2 antibody [mu/hu IgG1/k] LALA (antibody, V domains shown)
VH: B5 VH
VL: B5 VL
For B7, in test [2], the binding result is listed as “binds”.

B8: anti-LRP-8 BGK.5D10.E4 [r/m IgG2a/K] (antibody, V domains shown)
VH: QVQLRETGPDLVQPTQTLSLTCTVSGFSLTNYPVQWVRQPPGSGLEWLGIMWPSGAADFNPALKSRLSISRDTSKSQFFLRMDNLQTDDTAIYFCARGRGYSSPYAMDAWGQGTSVTVSS
VL: DIQMTQSPASLSASLGETVSIECLASEDIYNNLAWYQQKPGKSPHLLIHFTSNLQDGVPSRFSGSGSGTQYSLKINSLESEDGATYFCLQDSEYPLTFGSGTKLEIK
Regarding B8, the binding entry in test [4] is given as “binds”.

B9: BGK-7F7 (GENOVAC candidate clone of Table 17) (antibody, V domains shown)
VH: QVTLKESGPGILQPSQTLSLTCTFSGFSLSTYGLGVGWIRQPSGKGLEWLANIWWDDAKYYNPSLKNRLTISKDTSNNQAFLKIPNVDTADTARYYCARTTKPYYFDYWGQGVMVTVSS
VL: HFVLAQPNSVSTNLGSTVKLSCKRSTANIGSNYVNWYQQHEGRSPTTLIYRDDRRPDGVPDRFSGSIDRSSNSALLTINNVQTEDEADYFCQSYSSGINIFGGGTKLTVL
As for B9, the binding entry in test [9] and in [10] was “binds” in each case.

B10: anti-LRP-8 ML201-2B4.2B1.2H10 murine antibody (muFc) (antibody, V domains shown)
VH: DVKLVASGGGLVKPGGSLKLSCAASGFTLSRYAMSWVRQTPEKRLEWVAYIRNGGDYIYYADTVKGRFTISRDNARNTLYLQMSSLKSEDTAMYYCTREGSYYNFDYWGQGTTLTVSS
VL: DVLMTQTPLSLPVSLGDQASISCRSSQSIVHSNGNTYLEWYLQKPGQSPNLLIFKVSNRFSGVPDRFIGSGSGTDFTLKISRVEAEDLGVYYCFQGSHVPWTFGGGTKLEIK
Take B10: the binding result in test [7] and in [8] was “binds” in each case.

These data come from patent publication US20160200813A1.
